No constants are given. Whether binding was seen depends on the method and setting. Some binding calls cover weakened binding; strength is not graded here.
Tests used:
human IL-21 (human) [1] = target: human IL-21 (human) (UniProt Q9HBE4); test: SPR (ProtOn XPR36), biotinylated hIL21 immobilised on NLC chip
human IL-21 (human) [2] = target: human IL-21 (human) (UniProt Q9HBE4); test: SPR (ProteOn XPR36, NLC chip): immobilised biotinylated hIL21, antibody as analyte
human IL-21 (human) [3] = target: human IL-21 (human) (UniProt Q9HBE4); test: ELISA: coated hIL-21 (1 ug/ml), serial dilutions of the antibody, anti-human IgG HRP, TMB
human IL-21 (human) [4] = target: human IL-21 (human) (UniProt Q9HBE4); test: SPR (FIG. 14)
human IL-21 (human) [5] = target: human IL-21 (human) (UniProt Q9HBE4); test: ELISA, hIL-21 coated at 1 ug/ml, serial dilutions of antibody
human IL-21 (human) [6] = target: human IL-21 (human) (UniProt Q9HBE4); test: ELISA on coated hIL-21 (FIG. 13)

Amino acid sequences for entries named in this document (tags omitted). A change or cut given only in a name is not applied to a line headed by its entry.
UniProt Q9HBE4: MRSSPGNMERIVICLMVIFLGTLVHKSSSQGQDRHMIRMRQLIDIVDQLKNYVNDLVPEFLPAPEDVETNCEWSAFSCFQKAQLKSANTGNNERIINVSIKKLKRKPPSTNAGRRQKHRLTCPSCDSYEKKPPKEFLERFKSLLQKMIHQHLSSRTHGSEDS

Measured: binding

B1: humanized 2P2 antibody (antibody, V domains shown)
VH: QVQLVQSGAEVKKPGASVKVSCKASGFNIKDYYIHWVRQAPGQGLELIGWIDPESGDTNYAQKFQVKATMTRDTSISTAYMELSRLRSDDTAVYYCNDGSGYWGQGTTVTVSS
VL: DVVMTQSPLSLPVTLGQPASISCKSSQSLLDSDGETYLNWLQQRPGQSPRRLISLVSKLDSGVPDRFSGSGSGTDFTLKISRVEAEDVGVYYCWQGTHFPYTFGQGTKLEIK
binds: all assays above

Reference: patent US20190111148A1
